Data taken from the supplement of paper PMC10849652.
The list shows a part of the results.

Amino acid sequences for entries named in this document (tags omitted). A change or cut given only in a name is not applied to a line headed by its entry.
UniProt P50336: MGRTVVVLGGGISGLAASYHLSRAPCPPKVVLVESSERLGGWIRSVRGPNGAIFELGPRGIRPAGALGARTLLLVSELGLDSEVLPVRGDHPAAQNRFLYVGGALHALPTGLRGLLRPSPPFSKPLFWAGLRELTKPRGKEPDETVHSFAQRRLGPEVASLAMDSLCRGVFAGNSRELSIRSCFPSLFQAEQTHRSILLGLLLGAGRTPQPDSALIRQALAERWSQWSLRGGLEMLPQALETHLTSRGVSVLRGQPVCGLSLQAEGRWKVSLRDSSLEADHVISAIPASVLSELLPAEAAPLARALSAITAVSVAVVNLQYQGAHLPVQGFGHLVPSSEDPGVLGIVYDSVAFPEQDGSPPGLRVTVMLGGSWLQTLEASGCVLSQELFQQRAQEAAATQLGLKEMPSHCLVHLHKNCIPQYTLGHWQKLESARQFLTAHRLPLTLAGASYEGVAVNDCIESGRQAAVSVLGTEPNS
UniProt O94906: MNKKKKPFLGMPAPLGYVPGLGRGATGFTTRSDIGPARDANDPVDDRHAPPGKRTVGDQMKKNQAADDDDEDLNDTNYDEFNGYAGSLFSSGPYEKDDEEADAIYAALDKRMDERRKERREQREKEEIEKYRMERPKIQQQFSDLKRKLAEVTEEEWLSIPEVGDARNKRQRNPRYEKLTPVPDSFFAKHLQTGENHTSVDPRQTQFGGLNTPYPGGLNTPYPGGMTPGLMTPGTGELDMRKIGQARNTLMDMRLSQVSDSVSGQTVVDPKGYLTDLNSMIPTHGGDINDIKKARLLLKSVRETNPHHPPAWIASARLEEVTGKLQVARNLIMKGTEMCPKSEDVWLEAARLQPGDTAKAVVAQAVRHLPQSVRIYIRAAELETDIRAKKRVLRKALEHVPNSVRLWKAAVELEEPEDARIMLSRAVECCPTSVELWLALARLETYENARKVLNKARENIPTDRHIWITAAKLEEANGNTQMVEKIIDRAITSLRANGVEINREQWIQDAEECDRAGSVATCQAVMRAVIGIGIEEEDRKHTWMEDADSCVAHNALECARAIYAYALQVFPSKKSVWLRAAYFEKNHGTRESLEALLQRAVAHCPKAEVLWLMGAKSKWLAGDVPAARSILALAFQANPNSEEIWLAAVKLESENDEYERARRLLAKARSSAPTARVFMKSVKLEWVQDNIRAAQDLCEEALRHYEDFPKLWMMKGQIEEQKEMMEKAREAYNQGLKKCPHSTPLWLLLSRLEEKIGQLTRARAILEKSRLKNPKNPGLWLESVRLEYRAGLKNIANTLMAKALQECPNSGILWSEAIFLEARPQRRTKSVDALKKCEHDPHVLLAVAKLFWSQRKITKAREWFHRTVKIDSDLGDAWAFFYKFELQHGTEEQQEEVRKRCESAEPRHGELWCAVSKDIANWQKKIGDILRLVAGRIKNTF
UniProt P41219, whole entry, looked up: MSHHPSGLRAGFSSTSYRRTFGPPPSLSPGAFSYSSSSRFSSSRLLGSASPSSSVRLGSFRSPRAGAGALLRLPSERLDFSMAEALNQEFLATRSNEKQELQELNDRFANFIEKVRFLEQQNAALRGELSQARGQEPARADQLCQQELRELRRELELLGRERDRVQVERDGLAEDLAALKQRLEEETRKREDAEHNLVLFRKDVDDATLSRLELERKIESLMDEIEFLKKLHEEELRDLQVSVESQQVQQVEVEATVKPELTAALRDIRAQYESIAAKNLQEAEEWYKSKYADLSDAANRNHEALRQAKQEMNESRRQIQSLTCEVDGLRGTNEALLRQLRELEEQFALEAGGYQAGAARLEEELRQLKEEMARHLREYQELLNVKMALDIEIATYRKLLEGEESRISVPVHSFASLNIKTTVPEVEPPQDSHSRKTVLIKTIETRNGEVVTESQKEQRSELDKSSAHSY
UniProt P10644, whole entry, looked up: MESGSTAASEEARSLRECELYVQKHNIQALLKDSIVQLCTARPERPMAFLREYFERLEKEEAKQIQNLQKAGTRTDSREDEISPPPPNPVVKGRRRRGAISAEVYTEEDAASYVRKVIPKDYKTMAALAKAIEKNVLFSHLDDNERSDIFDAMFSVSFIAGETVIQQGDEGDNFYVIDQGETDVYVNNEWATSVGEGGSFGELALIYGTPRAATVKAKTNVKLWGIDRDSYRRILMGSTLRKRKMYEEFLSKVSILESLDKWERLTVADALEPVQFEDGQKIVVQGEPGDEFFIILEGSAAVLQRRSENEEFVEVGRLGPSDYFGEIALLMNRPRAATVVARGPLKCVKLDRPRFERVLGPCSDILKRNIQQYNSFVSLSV
UniProt Q9Y255: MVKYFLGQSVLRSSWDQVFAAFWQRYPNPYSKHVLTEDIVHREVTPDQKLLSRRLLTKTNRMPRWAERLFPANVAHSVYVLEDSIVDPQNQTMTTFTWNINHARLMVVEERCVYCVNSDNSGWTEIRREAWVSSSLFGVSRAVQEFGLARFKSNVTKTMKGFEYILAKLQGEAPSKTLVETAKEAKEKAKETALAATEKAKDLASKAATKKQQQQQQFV
UniProt P79522: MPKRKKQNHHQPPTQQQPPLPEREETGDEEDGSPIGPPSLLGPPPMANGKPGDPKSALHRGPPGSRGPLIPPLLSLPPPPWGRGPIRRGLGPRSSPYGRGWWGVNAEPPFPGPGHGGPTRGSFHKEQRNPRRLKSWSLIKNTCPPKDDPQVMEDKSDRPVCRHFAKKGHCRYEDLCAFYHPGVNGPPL
UniProt Q13362, whole entry, looked up: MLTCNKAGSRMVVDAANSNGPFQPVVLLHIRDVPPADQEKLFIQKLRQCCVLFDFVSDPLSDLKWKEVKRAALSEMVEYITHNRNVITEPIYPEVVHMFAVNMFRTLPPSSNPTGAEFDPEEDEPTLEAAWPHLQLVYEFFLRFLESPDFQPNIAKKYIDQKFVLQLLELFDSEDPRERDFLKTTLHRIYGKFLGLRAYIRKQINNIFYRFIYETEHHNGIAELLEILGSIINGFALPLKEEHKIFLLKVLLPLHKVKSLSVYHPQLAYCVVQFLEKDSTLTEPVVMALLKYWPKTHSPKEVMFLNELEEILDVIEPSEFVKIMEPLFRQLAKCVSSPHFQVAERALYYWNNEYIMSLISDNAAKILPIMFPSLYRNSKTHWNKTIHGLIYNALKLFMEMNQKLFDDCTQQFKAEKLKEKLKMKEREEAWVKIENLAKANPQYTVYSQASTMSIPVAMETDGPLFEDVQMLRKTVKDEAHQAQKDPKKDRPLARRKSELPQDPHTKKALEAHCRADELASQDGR
UniProt P14314: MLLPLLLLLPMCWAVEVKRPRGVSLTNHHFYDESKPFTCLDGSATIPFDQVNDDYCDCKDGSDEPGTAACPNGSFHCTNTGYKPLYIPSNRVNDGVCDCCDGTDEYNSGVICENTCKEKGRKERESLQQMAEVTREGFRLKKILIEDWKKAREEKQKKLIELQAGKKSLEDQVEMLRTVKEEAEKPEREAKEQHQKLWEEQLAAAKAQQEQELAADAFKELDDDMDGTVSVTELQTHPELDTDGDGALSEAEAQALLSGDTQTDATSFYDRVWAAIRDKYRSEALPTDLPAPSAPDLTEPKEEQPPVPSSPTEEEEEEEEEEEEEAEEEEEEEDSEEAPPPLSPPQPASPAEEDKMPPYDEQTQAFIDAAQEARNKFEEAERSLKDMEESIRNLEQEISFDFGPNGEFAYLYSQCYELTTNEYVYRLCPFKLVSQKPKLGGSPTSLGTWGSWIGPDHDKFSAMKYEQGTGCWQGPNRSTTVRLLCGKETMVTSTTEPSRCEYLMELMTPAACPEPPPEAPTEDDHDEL
UniProt O14668: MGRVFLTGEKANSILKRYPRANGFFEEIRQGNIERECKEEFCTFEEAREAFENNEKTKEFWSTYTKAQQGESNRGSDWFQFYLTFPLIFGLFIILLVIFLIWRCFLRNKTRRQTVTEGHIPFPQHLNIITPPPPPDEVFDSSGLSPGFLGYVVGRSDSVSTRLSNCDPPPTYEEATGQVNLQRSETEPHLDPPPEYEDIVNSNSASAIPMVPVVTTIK
UniProt Q13029: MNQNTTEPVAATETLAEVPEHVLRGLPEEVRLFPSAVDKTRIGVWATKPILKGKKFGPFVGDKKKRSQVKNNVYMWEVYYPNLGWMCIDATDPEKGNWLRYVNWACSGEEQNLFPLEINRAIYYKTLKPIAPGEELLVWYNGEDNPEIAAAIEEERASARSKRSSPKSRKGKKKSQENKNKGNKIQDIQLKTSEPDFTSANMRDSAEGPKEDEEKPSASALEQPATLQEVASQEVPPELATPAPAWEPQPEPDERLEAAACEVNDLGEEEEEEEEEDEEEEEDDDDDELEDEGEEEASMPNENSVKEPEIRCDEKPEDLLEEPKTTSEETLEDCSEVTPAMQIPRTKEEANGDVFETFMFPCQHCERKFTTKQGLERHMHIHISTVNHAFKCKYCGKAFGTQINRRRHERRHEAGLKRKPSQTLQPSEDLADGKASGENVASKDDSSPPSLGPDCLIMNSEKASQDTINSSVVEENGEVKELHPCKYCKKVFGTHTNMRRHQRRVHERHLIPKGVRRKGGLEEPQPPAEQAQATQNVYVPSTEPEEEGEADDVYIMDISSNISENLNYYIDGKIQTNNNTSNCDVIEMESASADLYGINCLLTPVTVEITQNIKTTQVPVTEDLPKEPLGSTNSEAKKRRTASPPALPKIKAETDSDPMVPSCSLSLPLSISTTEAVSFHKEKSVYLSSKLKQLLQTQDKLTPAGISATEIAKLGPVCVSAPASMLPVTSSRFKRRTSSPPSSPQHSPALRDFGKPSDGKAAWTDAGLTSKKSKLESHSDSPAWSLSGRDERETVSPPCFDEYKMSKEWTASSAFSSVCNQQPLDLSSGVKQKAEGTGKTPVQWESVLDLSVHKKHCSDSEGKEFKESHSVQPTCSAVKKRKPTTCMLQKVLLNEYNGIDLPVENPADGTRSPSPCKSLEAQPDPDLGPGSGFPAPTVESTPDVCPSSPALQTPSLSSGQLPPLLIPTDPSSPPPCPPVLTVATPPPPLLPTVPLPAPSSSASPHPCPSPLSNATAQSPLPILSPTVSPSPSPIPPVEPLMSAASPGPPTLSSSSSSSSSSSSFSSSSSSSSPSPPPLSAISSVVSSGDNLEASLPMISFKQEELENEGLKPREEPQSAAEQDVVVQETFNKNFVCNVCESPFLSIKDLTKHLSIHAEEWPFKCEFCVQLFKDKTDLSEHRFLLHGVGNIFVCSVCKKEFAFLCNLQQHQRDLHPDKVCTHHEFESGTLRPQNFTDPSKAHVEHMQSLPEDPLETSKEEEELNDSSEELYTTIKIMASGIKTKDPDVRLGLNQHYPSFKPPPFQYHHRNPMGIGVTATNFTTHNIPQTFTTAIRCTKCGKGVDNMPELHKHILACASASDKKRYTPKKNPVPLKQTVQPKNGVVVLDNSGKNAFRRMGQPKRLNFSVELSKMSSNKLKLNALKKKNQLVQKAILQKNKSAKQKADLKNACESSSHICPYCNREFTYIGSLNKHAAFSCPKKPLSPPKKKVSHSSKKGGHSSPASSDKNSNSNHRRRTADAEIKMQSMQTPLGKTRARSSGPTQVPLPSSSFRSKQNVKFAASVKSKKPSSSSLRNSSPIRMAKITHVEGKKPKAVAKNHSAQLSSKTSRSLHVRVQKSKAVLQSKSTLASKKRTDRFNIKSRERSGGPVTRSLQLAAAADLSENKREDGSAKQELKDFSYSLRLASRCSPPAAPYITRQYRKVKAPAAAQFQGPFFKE

Legend:
Assay in all cases: log2 fold change, soluble protein after heating vs DMSO (PISA); higher = thermal stabilisation; K562 cells, 10 uM, 30 min; active = over 0.2 and 3.5 SD of the protein, either way, in both replicates (recomputed)
[1] = compound: CS(=O)(=O)c1ccc(-c2cnc(N)c(C(=O)Nc3ccccc3)n2)cc1
Summary of the method: (§1)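 Quantification of soluble protein used TMTpro 16plex LC-MS/MS, with channel sums equalised. Samples were the supernatant after 21,000xg for 90 min of pooled aliquots from K562 cells (2×10^6 cells/mL) treated with 10 μM compound for 30 min, heated for 3 min over 48°C-58°C, and extracted in PBS with 0.5% NP-40 at 4°C. Values, from duplicates, describe thermal stability against control samples on a log2 fold-change scale.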

crizotinib = compound: C[C@@H](Oc1cc(-c2cnn(C3CCNCC3)c2)cnc1N)c1c(Cl)ccc(F)c1Cl [crizotinib]
Summary of the method: as §1

[2] = compound: C[C@@H]1COCCN1C2=NC(=NC(=C2)C3(CC3)S(=O)(=O)C)C4=C5C=CNC5=CC=C4
Summary of the method: as §1

[3] = compound: C[C@H](C1=CC=C(C=C1)C(=O)NC2=C3C=CNC3=NC=C2)N
Summary of the method: as §1

gandotinib = compound: Cc1cc(Nc2cc(CN3CCOCC3)c3nc(C)c(Cc4ccc(Cl)cc4F)n3n2)n[nH]1 [gandotinib]
Summary of the method: as §1

[4] = compound: Cc1cc(SCc2sc(-c3ccc(C(F)(F)F)cc3)nc2C)ccc1OCC(=O)O
Summary of the method: as §1

doramapimod = compound: Cc1ccc(-n2nc(C(C)(C)C)cc2NC(=O)Nc2ccc(OCCN3CCOCC3)c3ccccc23)cc1 [doramapimod]
Summary of the method: as §1

ispinesib = compound: Cc1ccc(C(=O)N(CCCN)[C@@H](c2nc3cc(Cl)ccc3c(=O)n2Cc2ccccc2)C(C)C)cc1 [ispinesib]
Summary of the method: as §1

bafetinib = compound: Cc1ccc(NC(=O)c2ccc(CN3CC[C@H](N(C)C)C3)c(C(F)(F)F)c2)cc1Nc1nccc(-c2cncnc2)n1 [bafetinib]
Summary of the method: as §1

[5] = compound: Cc1cccc(CC(=O)N2CCc3c2ccc(-c2cn(C)c4ncnc(N)c24)c3F)n1
Summary of the method: as §1

nilotinib = compound: Cc1cn(-c2cc(NC(=O)c3ccc(C)c(Nc4nccc(-c5cccnc5)n4)c3)cc(C(F)(F)F)c2)cn1 [nilotinib]
Summary of the method: as §1

[6] = compound: Cc1nc(Nc2n[nH]c3c2CN(C(=O)N[C@H](CN(C)C)c2ccccc2)C3(C)C)c2sccc2n1
Summary of the method: as §1

dasatinib = compound: Cc1nc(Nc2ncc(C(=O)Nc3c(C)cccc3Cl)s2)cc(N2CCN(CCO)CC2)n1 [dasatinib]
Summary of the method: as §1

[7] = compound: Cc1ncc(-c2ccnc(Nc3ccc(S(C)(=O)=O)cc3)n2)n1C(C)C
Summary of the method: as §1

[8] = compound: Cn1cc(-c2ccc3c(c2)CCN3C(=O)Cc2cccc(C(F)(F)F)c2)c2c(N)ncnc21
Summary of the method: as §1

[9] = compound: Cn1cc(-c2ccc3nnc(C(F)(F)c4ccc5ncccc5c4)n3n2)cn1
Summary of the method: as §1

tipifarnib = compound: Cn1cncc1[C@@](N)(c1ccc(Cl)cc1)c1ccc2c(c1)c(-c1cccc(Cl)c1)cc(=O)n2C [tipifarnib]
Summary of the method: as §1

mubritinib = compound: FC(F)(F)c1ccc(/C=C/c2nc(COc3ccc(CCCCn4ccnn4)cc3)co2)cc1 [mubritinib]
Summary of the method: as §1

duvelisib = compound: C[C@H](Nc1ncnc2nc[nH]c12)c1cc2cccc(Cl)c2c(=O)n1-c1ccccc1 [duvelisib]
Summary of the method: as §1

tozasertib = compound: Cc1cc(Nc2cc(N3CCN(C)CC3)nc(Sc3ccc(NC(=O)C4CC4)cc3)n2)n[nH]1 [tozasertib]
Summary of the method: as §1

Measured: log2 fold change

PPP4R3B (UniProt Q5MIZ7)
inactive: [1] -0.003 | crizotinib 0.124 | [2] 0.064 | [3] -0.035 | gandotinib -0.075 | [4] 0.056 | doramapimod 0 | ispinesib 0.056 | bafetinib -0.054 | [5] 0.116 | nilotinib -0.032 | [6] -0.006 | dasatinib -0.03 | [7] -0.013 | [8] 0.037 | [9] 0.054 | tipifarnib -0.041 | mubritinib 0.006

PRKCG (UniProt P05129)
inactive: [1] 0.078 | crizotinib -0.005 | [2] 0.188 | [3] 0.028 | gandotinib -0.149 | [4] 0.11 | doramapimod -0.029 | ispinesib 0 | bafetinib -0.012 | [5] 0.067 | nilotinib 0.019 | [6] -0.385 | dasatinib 0.022 | [7] 0.018 | [8] 0.015 | [9] -0.132 | tipifarnib -0.095 | mubritinib 0.047

PPOX (UniProt P50336)
inactive: [1] 0.173 | crizotinib -0.197 | [2] 0.128 | [3] -0.077 | gandotinib 0.427 | [4] 0.091 | doramapimod 0.378 | ispinesib 0.02 | bafetinib -0.031 | [5] -0.013 | nilotinib 0.494 | [6] 0.027 | dasatinib 0.208 | [7] -0.015 | [8] 0.192 | [9] 0.086 | tipifarnib 0.08 | mubritinib 0

PPP2R5E (UniProt Q16537)
inactive: [1] -0.024 | crizotinib -0.15 | [2] 0.037 | [3] 0.105 | gandotinib 0.167 | [4] 0.015 | doramapimod -0.01 | ispinesib -0.024 | bafetinib -0.023 | [5] -0.058 | nilotinib -0.11 | [6] 0.057 | dasatinib -0.074 | [7] -0.059 | [8] -0.049 | [9] -0.037 | tipifarnib -0.159 | mubritinib 0.018

PRPF6 (UniProt O94906)
inactive: [1] 0.072 | crizotinib -0.093 | [2] -0.091 | duvelisib -0.111 | gandotinib 0.181 | tozasertib 0.18 | [4] -0.103 | doramapimod 0.488 | ispinesib -0.208 | bafetinib 0.115 | [5] -0.182 | dasatinib -0.035 | [9] -0.11

PRG4 (UniProt Q92954)
inactive: [1] 0.08 | crizotinib -0.19 | [2] -0.014 | [3] 0.023 | gandotinib 0.098 | [4] 0.004 | doramapimod -0.229 | ispinesib -0.114 | bafetinib -0.095 | [5] 0.104 | nilotinib -0.05 | [6] 0.065 | dasatinib 0 | [7] 0.258 | [8] 0.203 | [9] 0.068 | mubritinib -0.016

PROSER3, A0A2R8Y8D9
inactive: [1] 0.016 | [2] -0.132 | [3] -0.078 | duvelisib 0.049 | tozasertib -0.011 | [4] 0.061 | dasatinib -0.03 | [8] 0.047 | mubritinib -0.225

PRPSAP2 (UniProt O60256)
inactive: [1] 0 | crizotinib 0.01 | [2] 0.112 | [3] -0.016 | gandotinib 0.114 | [4] 0.023 | doramapimod -0.007 | ispinesib 0.012 | bafetinib -0.034 | [5] 0.124 | nilotinib -0.024 | [6] 0.064 | dasatinib -0.028 | [7] -0.005 | [8] -0.037 | [9] -0.018 | tipifarnib 0.023 | mubritinib -0.008

PRMT3 (UniProt O60678)
inactive: [1] -0.067 | crizotinib -0.137 | [2] -0.002 | [3] -0.058 | gandotinib -0.156 | [4] 0.111 | doramapimod -0.037 | ispinesib -0.02 | bafetinib 0.048 | [5] 0.034 | nilotinib -0.155 | [6] 0.011 | dasatinib -0.153 | [7] -0.02 | [8] -0.044 | [9] -0.004 | tipifarnib -0.126 | mubritinib 0.081

PRPF40A (UniProt O75400)
inactive: [1] -0.023 | crizotinib 0.071 | [2] 0.105 | [3] -0.061 | gandotinib -0.04 | [4] 0.104 | doramapimod 0.021 | ispinesib -0.034 | bafetinib -0.014 | [5] 0.005 | nilotinib -0.085 | [6] -0.058 | dasatinib -0.05 | [7] -0.135 | [8] 0.082 | [9] 0.048 | tipifarnib 0.045 | mubritinib -0.013

PRPH isoform 2 (UniProt P41219)
inactive: [1] 0.065 | crizotinib 0.212 | [3] 0.076 | duvelisib -0.244 | gandotinib 0.131 | tozasertib 0.34 | [4] 0.134 | doramapimod 0.113 | ispinesib -0.195 | bafetinib -0.171 | [5] 0.001 | nilotinib 0.104 | [6] -0.141 | dasatinib 0.356 | [7] -0.048 | [8] -0.276 | [9] -0.222 | tipifarnib 0.353 | mubritinib -0.169

PRKAR1A (UniProt P10644)
inactive: [1] 0.209 | crizotinib 0.259 | [2] 0.03 | [3] 0.173 | gandotinib 0.139 | [4] 0.001 | doramapimod 0 | ispinesib -0.06 | bafetinib 0.232 | [5] -0.006 | nilotinib 0.12 | [6] 0.195 | dasatinib -0.046 | [7] 0.152 | [8] 0 | [9] 0.281 | tipifarnib 0.231 | mubritinib -0.169

Reprinted at random: 2 entries already listed
PRPH isoform 2 (UniProt P41219)
inactive: [1] 0.065 | crizotinib 0.212 | [3] 0.076 | duvelisib -0.244 | gandotinib 0.131 | tozasertib 0.34 | [4] 0.134 | doramapimod 0.113 | ispinesib -0.195 | bafetinib -0.171 | [5] 0.001 | nilotinib 0.104 | [6] -0.141 | dasatinib 0.356 | [7] -0.048 | [8] -0.276 | [9] -0.222 | tipifarnib 0.353 | mubritinib -0.169

PRPSAP2 (UniProt O60256)
inactive: [1] 0 | crizotinib 0.01 | [2] 0.112 | [3] -0.016 | gandotinib 0.114 | [4] 0.023 | doramapimod -0.007 | ispinesib 0.012 | bafetinib -0.034 | [5] 0.124 | nilotinib -0.024 | [6] 0.064 | dasatinib -0.028 | [7] -0.005 | [8] -0.037 | [9] -0.018 | tipifarnib 0.023 | mubritinib -0.008

Further results follow.

PRELID1 (UniProt Q9Y255)
inactive: [1] -0.005 | crizotinib 0.013 | [2] -0.064 | gandotinib 0.052 | tozasertib 0.123 | doramapimod 0.025 | bafetinib 0.145 | [5] -0.04 | nilotinib 0.124 | [6] -0.074 | [7] -0.117 | tipifarnib 0.306 | mubritinib -0.081

PRR3 (UniProt P79522)
inactive: [1] 0.033 | crizotinib -0.019 | [2] -0.06 | gandotinib 0.1 | tozasertib -0.059 | doramapimod 0.056 | [5] -0.259

PPP1R9A isoform 3 (UniProt Q9ULJ8)
inactive: [1] -0.33 | crizotinib 0.047 | [2] -0.017 | duvelisib -0.079 | [4] -0.002 | doramapimod 0.064 | ispinesib -0.017 | bafetinib -0.009 | nilotinib -0.028 | [6] -0.018 | dasatinib 0 | [7] 0.091 | [9] 0.005 | mubritinib -0.111

PPP2R5C isoform 5 (UniProt Q13362)
inactive: [1] -0.054 | crizotinib -0.071 | [2] 0.023 | [3] -0.05 | gandotinib -0.024 | [4] 0.069 | doramapimod -0.043 | ispinesib 0.007 | bafetinib -0.024 | [5] 0.005 | nilotinib -0.168 | [6] -0.026 | dasatinib -0.227 | [7] 0.026 | [8] 0.031 | [9] -0.06 | tipifarnib -0.099 | mubritinib 0.042

PRIMPOL (UniProt Q96LW4)
inactive: [1] -0.19 | [3] 0.122 | duvelisib -0.006 | tozasertib 0.039 | [4] -0.012 | dasatinib 0.035 | [8] 0.021 | tipifarnib -0.143

PRKCSH isoform 2 (UniProt P14314)
inactive: crizotinib -0.065 | [2] -0.339 | [3] -0.168 | duvelisib -0.111 | gandotinib 0.14 | tozasertib -0.067 | [4] -0.048 | doramapimod -0.046 | ispinesib 0.287 | bafetinib -0.127 | [5] 0.18 | nilotinib -0.011 | [6] -0.101 | dasatinib 0.004 | [7] -0.079 | [8] -0.122 | [9] -0.354 | mubritinib -0.027

PRRG1 (UniProt O14668)
inactive: crizotinib 0.079 | gandotinib -0.026 | doramapimod -0.053 | ispinesib -0.025 | [5] -0.028 | [9] -0.016 | tipifarnib 0.061 | mubritinib 0.07

PRR14L (UniProt Q5THK1)
inactive: [3] -0.072 | gandotinib -0.084 | [5] -0.156 | nilotinib -0.027 | [6] -0.044 | [7] -0.007 | [8] 0.019 | tipifarnib -0.039

PRDM2 (UniProt Q13029)
inactive: crizotinib 0.164 | [2] -0.067 | [3] 0.223 | duvelisib 0.032 | gandotinib 0.052 | tozasertib 0.08 | [4] -0.11 | doramapimod 0.237 | ispinesib -0.059 | [5] -0.069 | nilotinib 0.191 | [6] -0.058 | dasatinib 0.111 | [7] -0.06 | [8] -0.138 | [9] -0.152 | tipifarnib 0.004 | mubritinib -0.001
